{
  "source": "the supplement of paper PMC8728848",
  "binders": {"B1": {"name": "LERP (Drosophila melanogaster), B7Z0Q8 (protein)", "chain": "MRCSLQKDCAAPTQENFRQMRFPIVISLLLLLFCSGESVAADAANQLKFSTTECKLKEPIYGSTFDFSGLHSDLAHVVKSMNIGGDQFEFNICGNLSRTCNGESNVAACLKRQGKEYILGRQHELFYNNGNMFLKYKSGAKCDNGTADKPNYQLHVMFSCDYTLDAQPMHVTPYANEVCSFYISYRTPLACLSIPEGLQSNSCRVGDTKSNGTFDLMPLSDSNYHTSNRQGAFFVINVCKPVLYGENSMCPAGSSVCLFDSKATNPKERFINFGNVQTHPVVEKGQLLLRHESPTPCAKNSSANYTSVIYFSCDKFIRNAHPEFAGLGADSCTYQFNFATPLACNDLKPCTAFTSTNELLDLSSLSSKPARTLLKDGKNYTIAVCAHAGAPCQENGGACYEQNSTTISLGNSNSQLRFNQTGSLYLLYEDGAECSTATGMRRWSTKIEFVCANNATKDNGASTAGGSDSLKIIEDSNCQLLIQYQTPLACREPIRCKATTYVDHTNDGLGSSGDELIDLTPLISATDNYEARVELPASMEHLVPKTTKFFLNVCRPLVPKYQLGCAGGSAACMAKVTAAGAPEEERSMGFPLVSLTQRNRTFAELAYLKGDPCPTDNTSELSTHILFNCNMRAGRGQPVLRSVEDCAYRFEWETNVFCPPHECTFSADTCDLVHDELGRRFNFKSAPFTKDGKIEIDYNATKMSVNICGAHRKAMTDYSQALVNIFFTHESPNCGREGTMNVQIRLICSDQTESSSTISSDQQCNLLYVQRTPSICEFLSLGATQQNFESNGSTSSSTSSSSTSTTTSTTTQASPAGKPTKAATSTTTTTVGPDPAATPIGPTASVGTILGAILSVTFCVTCLGLLAFSPARRQRIRRLFRRSNSAVRYSRVQSNEEANLLLEPNGEFTESDDDMLL"}},
  "experiment_in_all_cases": "glycan array binding signal (z-score within array); higher = stronger binding",
  "details_in_all_cases": "glycan notation: IUPAC condensed, linker removed",
  "key": {"[1]": {"target": "Neu5Ac(a2-3)Gal(b1-4)[Fuc(a1-3)]GlcNAc(b1-3)GalNAc", "outline": "(§1)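 Negative Z-scores can be read as non-binding. The Z-score is calculated within each array and then averaged across arrays of one protein sequence at different concentrations or buffers and across linkers. Arrays, 3228 in all, were curated from the Consortium for Functional Glycomics database and kept only where the protein sequence was available.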"}, "[2]": {"target": "Neu5Ac(a2-3)Gal(b1-4)[Fuc(a1-3)]GlcNAc(b1-6)[Gal(b1-3)]GalNAc", "outline": "as §1"}, "[3]": {"target": "Neu5Ac(a2-3)Gal(b1-4)[Fuc(a1-3)]GlcNAc(b1-6)[Neu5Ac(a2-3)Gal(b1-3)]GalNAc", "outline": "as §1"}, "[4]": {"target": "Neu5Ac(a2-3)Gal(b1-4)[Fuc(a1-3)]GlcNAc6S", "outline": "as §1"}, "[5]": {"target": "Neu5Ac(a2-3)Gal6S(b1-4)GlcNAc", "outline": "as §1"}, "[6]": {"target": "Neu5Ac(a2-3)Gal6S(b1-4)[Fuc(a1-3)]GlcNAc", "outline": "as §1"}, "[7]": {"target": "Neu5Ac(a2-3)GalNAc", "outline": "as §1"}, "[8]": {"target": "Neu5Ac(a2-3)GalNAc(b1-4)GlcNAc", "outline": "as §1"}, "[9]": {"target": "Neu5Ac(a2-3)[GalNAc(b1-4)]Gal(b1-4)Glc", "outline": "as §1"}, "[10]": {"target": "Neu5Ac(a2-3)[GalNAc(b1-4)]Gal(b1-4)GlcNAc", "outline": "as §1"}, "[11]": {"target": "Neu5Ac(a2-3)[GalNAc(b1-4)]Gal(b1-4)GlcNAc(b1-3)GalNAc", "outline": "as §1"}, "[12]": {"target": "Neu5Ac(a2-3)[Neu5Ac(a2-6)]GalNAc", "outline": "as §1"}, "[13]": {"target": "Neu5Ac(a2-6)Gal", "outline": "as §1"}, "[14]": {"target": "Neu5Ac(a2-6)Gal(b1-4)Glc", "outline": "as §1"}, "[15]": {"target": "Neu5Ac(a2-6)Gal(b1-4)GlcNAc", "outline": "as §1"}, "[16]": {"target": "Neu5Ac(a2-6)Gal(b1-4)GlcNAc(b1-2)Man(a1-3)Man(b1-4)GlcNAc(b1-4)GlcNAc", "outline": "as §1"}, "[17]": {"target": "Neu5Ac(a2-6)Gal(b1-4)GlcNAc(b1-2)Man(a1-3)[Gal(b1-4)GlcNAc(b1-2)Man(a1-6)]Man(b1-4)GlcNAc(b1-4)GlcNAc", "outline": "as §1"}, "[18]": {"target": "Neu5Ac(a2-6)Gal(b1-4)GlcNAc(b1-2)Man(a1-3)[GlcNAc(b1-2)Man(a1-6)]Man(b1-4)GlcNAc(b1-4)GlcNAc", "outline": "as §1"}, "[19]": {"target": "Neu5Ac(a2-6)Gal(b1-4)GlcNAc(b1-2)Man(a1-3)[GlcNAc(b1-2)Man(b1-4)GlcNAc(b1-2)Man(a1-6)]Man(b1-4)GlcNAc(b1-4)GlcNAc", "outline": "as §1"}, "[20]": {"target": "Neu5Ac(a2-6)Gal(b1-4)GlcNAc(b1-2)Man(a1-3)[Man(a1-6)]Man(b1-4)GlcNAc(b1-4)GlcNAc", "outline": "as §1"}, "[21]": {"target": "Neu5Ac(a2-6)Gal(b1-4)GlcNAc(b1-2)Man(a1-3)[Neu5Ac(a2-6)Gal(b1-4)GlcNAc(b1-2)Man(a1-6)]Man(b1-4)GlcNAc(b1-4)GlcNAc", "outline": "as §1"}, "[22]": {"target": "Neu5Ac(a2-6)Gal(b1-4)GlcNAc(b1-2)Man(a1-6)Man(b1-4)GlcNAc(b1-4)GlcNAc", "outline": "as §1"}, "[23]": {"target": "Neu5Ac(a2-6)Gal(b1-4)GlcNAc(b1-2)Man(a1-6)[Gal(b1-4)GlcNAc(b1-2)Man(a1-3)]Man(b1-4)GlcNAc(b1-4)GlcNAc", "outline": "as §1"}, "[24]": {"target": "Neu5Ac(a2-6)Gal(b1-4)GlcNAc(b1-2)Man(a1-6)[GlcNAc(b1-2)Man(a1-3)]Man(b1-4)GlcNAc(b1-4)GlcNAc", "outline": "as §1"}, "[25]": {"target": "Neu5Ac(a2-6)Gal(b1-4)GlcNAc(b1-2)Man(a1-6)[Man(a1-3)]Man(b1-4)GlcNAc(b1-4)GlcNAc", "outline": "as §1"}, "[26]": {"target": "Neu5Ac(a2-6)Gal(b1-4)GlcNAc(b1-3)Gal(b1-3)GlcNAc", "outline": "as §1"}, "[27]": {"target": "Neu5Ac(a2-6)Gal(b1-4)GlcNAc(b1-3)Gal(b1-4)GlcNAc", "outline": "as §1"}},
  "note": "Some of the results follow.",
  "data": [
    {"binder": "B1", "values": [
      {"measurement": "glycan array binding signal (z-score)", "setting": "[1]", "result": 0.301},
      {"measurement": "glycan array binding signal (z-score)", "setting": "[2]", "result": 2.71},
      {"measurement": "glycan array binding signal (z-score)", "setting": "[3]", "result": 0.222},
      {"measurement": "glycan array binding signal (z-score)", "setting": "[4]", "result": -0.72},
      {"measurement": "glycan array binding signal (z-score)", "setting": "[5]", "result": -1.42},
      {"measurement": "glycan array binding signal (z-score)", "setting": "[6]", "result": 0.319},
      {"measurement": "glycan array binding signal (z-score)", "setting": "[7]", "result": 0.609},
      {"measurement": "glycan array binding signal (z-score)", "setting": "[8]", "result": 0.544},
      {"measurement": "glycan array binding signal (z-score)", "setting": "[9]", "result": -0.06},
      {"measurement": "glycan array binding signal (z-score)", "setting": "[10]", "result": -0.271},
      {"measurement": "glycan array binding signal (z-score)", "setting": "[11]", "result": -0.344},
      {"measurement": "glycan array binding signal (z-score)", "setting": "[12]", "result": 0.339},
      {"measurement": "glycan array binding signal (z-score)", "setting": "[13]", "result": 0.042},
      {"measurement": "glycan array binding signal (z-score)", "setting": "[14]", "result": 0.348},
      {"measurement": "glycan array binding signal (z-score)", "setting": "[15]", "result": -0.434},
      {"measurement": "glycan array binding signal (z-score)", "setting": "[16]", "result": 0.87},
      {"measurement": "glycan array binding signal (z-score)", "setting": "[17]", "result": 1.42},
      {"measurement": "glycan array binding signal (z-score)", "setting": "[18]", "result": -0.535},
      {"measurement": "glycan array binding signal (z-score)", "setting": "[19]", "result": -0.443},
      {"measurement": "glycan array binding signal (z-score)", "setting": "[20]", "result": 2.27},
      {"measurement": "glycan array binding signal (z-score)", "setting": "[21]", "result": 0.108},
      {"measurement": "glycan array binding signal (z-score)", "setting": "[22]", "result": 0.432},
      {"measurement": "glycan array binding signal (z-score)", "setting": "[23]", "result": 0.337},
      {"measurement": "glycan array binding signal (z-score)", "setting": "[24]", "result": 2.42},
      {"measurement": "glycan array binding signal (z-score)", "setting": "[25]", "result": 2.27},
      {"measurement": "glycan array binding signal (z-score)", "setting": "[26]", "result": -0.533},
      {"measurement": "glycan array binding signal (z-score)", "setting": "[27]", "result": -0.658}
    ]}
  ]
}
